Measured values from the supplement of paper PMC8728848.
This is one part of the list.

Tests used:
Assay in all cases: glycan array binding signal (z-score within array); higher = stronger binding
Settings in all cases: glycan notation: IUPAC condensed, linker removed
[1] = system: GlcNAc(b1-3)Gal(b1-4)GlcNAc(b1-3)Gal(b1-4)GlcNAc(b1-2)[GlcNAc(b1-3)Gal(b1-4)GlcNAc(b1-3)Gal(b1-4)GlcNAc(b1-6)]Man(a1-6)[GlcNAc(b1-3)Gal(b1-4)GlcNAc(b1-3)Gal(b1-4)GlcNAc(b1-2)Man(a1-3)]Man(b1-4)GlcNAc(b1-4)[Fuc(a1-6)]GlcNAc
In short: (§1)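 Arrays were curated from the Consortium for Functional Glycomics database, 3228 in total, and kept only where the protein sequence was available. Binding is expressed as a within-array Z-score. This score was averaged across arrays of the same protein sequence at different concentrations or buffers and across linkers, and negative values can be read as non-binding.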

[2] = system: GlcNAc(b1-3)Gal(b1-4)GlcNAc(b1-3)Gal(b1-4)GlcNAc(b1-3)Gal(b1-4)GlcNAc(b1-2)Man(a1-3)[GlcNAc(b1-3)Gal(b1-4)GlcNAc(b1-3)Gal(b1-4)GlcNAc(b1-3)Gal(b1-4)GlcNAc(b1-2)Man(a1-6)]Man(b1-4)GlcNAc(b1-4)GlcNAc
In short: as §1

[3] = system: GlcNAc(b1-3)Gal(b1-4)GlcNAc(b1-3)Gal(b1-4)GlcNAc(b1-3)Gal(b1-4)GlcNAc(b1-2)Man(a1-3)[GlcNAc(b1-3)Gal(b1-4)GlcNAc(b1-3)Gal(b1-4)GlcNAc(b1-3)Gal(b1-4)GlcNAc(b1-2)Man(a1-6)]Man(b1-4)GlcNAc(b1-4)[Fuc(a1-6)]GlcNAc
In short: as §1

[4] = system: GlcNAc(b1-3)Gal(b1-4)GlcNAc(b1-3)Gal(b1-4)GlcNAc(b1-3)Gal(b1-4)GlcNAc(b1-2)[GlcNAc(b1-3)Gal(b1-4)GlcNAc(b1-3)Gal(b1-4)GlcNAc(b1-3)Gal(b1-4)GlcNAc(b1-6)]Man(a1-6)[GlcNAc(b1-3)Gal(b1-4)GlcNAc(b1-3)Gal(b1-4)GlcNAc(b1-3)Gal(b1-4)GlcNAc(b1-2)Man(a1-3)]Man(b1-4)GlcNAc(b1-4)[Fuc(a1-6)]GlcNAc
In short: as §1

[5] = system: GlcNAc(b1-3)Gal(b1-4)GlcNAc(b1-3)Gal(b1-4)GlcNAc(b1-3)Gal(b1-4)GlcNAc(b1-3)Gal(b1-4)GlcNAc(b1-2)Man(a1-3)[GlcNAc(b1-3)Gal(b1-4)GlcNAc(b1-3)Gal(b1-4)GlcNAc(b1-3)Gal(b1-4)GlcNAc(b1-3)Gal(b1-4)GlcNAc(b1-2)Man(a1-6)]Man(b1-4)GlcNAc(b1-4)GlcNAc
In short: as §1

[6] = system: GlcNAc(b1-3)Gal(b1-4)GlcNAc(b1-3)Gal(b1-4)GlcNAc(b1-3)Gal(b1-4)GlcNAc(b1-3)Gal(b1-4)GlcNAc(b1-2)Man(a1-3)[GlcNAc(b1-3)Gal(b1-4)GlcNAc(b1-3)Gal(b1-4)GlcNAc(b1-3)Gal(b1-4)GlcNAc(b1-3)Gal(b1-4)GlcNAc(b1-2)Man(a1-6)]Man(b1-4)GlcNAc(b1-4)[Fuc(a1-6)]GlcNAc
In short: as §1

[7] = system: GlcNAc(b1-3)Gal(b1-4)GlcNAc(b1-3)Gal(b1-4)GlcNAc(b1-3)Gal(b1-4)GlcNAc(b1-3)Gal(b1-4)GlcNAc(b1-2)[GlcNAc(b1-3)Gal(b1-4)GlcNAc(b1-3)Gal(b1-4)GlcNAc(b1-3)Gal(b1-4)GlcNAc(b1-3)Gal(b1-4)GlcNAc(b1-6)]Man(a1-6)[GlcNAc(b1-3)Gal(b1-4)GlcNAc(b1-3)Gal(b1-4)GlcNAc(b1-3)Gal(b1-4)GlcNAc(b1-3)Gal(b1-4)GlcNAc(b1-2)Man(a1-3)]Man(b1-4)GlcNAc(b1-4)[Fuc(a1-6)]GlcNAc
In short: as §1

[8] = system: GlcNAc(b1-3)Gal(b1-4)GlcNAc(b1-3)Gal(b1-4)GlcNAc(b1-3)GalNAc
In short: as §1

[9] = system: GlcNAc(b1-3)Gal(b1-4)GlcNAc(b1-3)Gal(b1-4)GlcNAc
In short: as §1

[10] = system: GlcNAc(b1-3)Gal(b1-4)GlcNAc(b1-3)GalNAc
In short: as §1

[11] = system: GlcNAc(b1-3)Gal(b1-4)GlcNAc(b1-3)[GlcNAc(b1-3)Gal(b1-4)GlcNAc(b1-3)]GalNAc
In short: as §1

[12] = system: GlcNAc(b1-3)Gal(b1-4)GlcNAc(b1-6)[Gal(b1-3)]GalNAc
In short: as §1

[13] = system: GlcNAc(b1-3)Gal(b1-4)GlcNAc(b1-6)[GlcNAc(b1-3)Gal(b1-3)]GalNAc
In short: as §1

[14] = system: GlcNAc(b1-3)Gal(b1-4)GlcNAc(b1-6)[GlcNAc(b1-3)]Gal(b1-4)GlcNAc
In short: as §1

[15] = system: GlcNAc(b1-3)Gal(b1-4)GlcNAc
In short: as §1

[16] = system: GlcNAc(b1-3)Gal(b1-4)Glc
In short: as §1

[17] = system: GlcNAc(b1-3)GalNAc
In short: as §1

[18] = system: GlcNAc(b1-3)Gal
In short: as §1

[19] = system: GlcNAc(b1-3)Man
In short: as §1

[20] = system: GlcNAc(b1-3)[GlcNAc(b1-4)][GlcNAc(b1-6)]GlcNAc
In short: as §1

[21] = system: GlcNAc(b1-3)[GlcNAc(b1-6)]Gal(b1-4)GlcNAc
In short: as §1

[22] = system: GlcNAc(b1-3)[GlcNAc(b1-6)]GalNAc
In short: as §1

[23] = system: GlcNAc(b1-4)Gal(b1-4)GlcNAc
In short: as §1

[24] = system: GlcNAc(b1-4)GlcNAc(b1-4)GlcNAc(b1-4)GlcNAc(b1-4)GlcNAc(b1-4)GlcNAc
In short: as §1

[25] = system: GlcNAc(b1-4)GlcNAc(b1-4)GlcNAc(b1-4)GlcNAc(b1-4)GlcNAc
In short: as §1

[26] = system: GlcNAc(b1-4)GlcNAc(b1-4)GlcNAc
In short: as §1

[27] = system: GlcNAc(b1-4)GlcNAc
In short: as §1

[28] = system: GlcNAc(b1-4)[GlcNAc(b1-6)]GalNAc
In short: as §1

[29] = system: GlcNAc(b1-6)Gal(b1-4)GlcNAc
In short: as §1

[30] = system: GlcNAc(b1-6)GalNAc
In short: as §1

[31] = system: GlcNAc6S(b1-3)Gal(b1-4)GlcNAc
In short: as §1

[32] = system: Kdn(a2-3)Gal(b1-3)GalNAc
In short: as §1

## MpAFP RI GFP (Marinomonas primoryensis)
[1]
  glycan array binding signal (z-score): 1.29
[2]
  glycan array binding signal (z-score): 4.26
[3]
  glycan array binding signal (z-score): 1.84
[4]
  glycan array binding signal (z-score): 1.39
[5]
  glycan array binding signal (z-score): 0.132
[6]
  glycan array binding signal (z-score): 0.427
[7]
  glycan array binding signal (z-score): 0.136
[8]
  glycan array binding signal (z-score): -0.564
[9]
  glycan array binding signal (z-score): -0.728
[10]
  glycan array binding signal (z-score): -0.309
[11]
  glycan array binding signal (z-score): -0.155
[12]
  glycan array binding signal (z-score): -0.32
[13]
  glycan array binding signal (z-score): 0.044
[14]
  glycan array binding signal (z-score): -0.702
[15]
  glycan array binding signal (z-score): -0.815
[16]
  glycan array binding signal (z-score): -0.605
[17]
  glycan array binding signal (z-score): -0.403
[18]
  glycan array binding signal (z-score): -0.51
[19]
  glycan array binding signal (z-score): 0.335
[20]
  glycan array binding signal (z-score): -0.643
[21]
  glycan array binding signal (z-score): -0.582
[22]
  glycan array binding signal (z-score): -0.199
[23]
  glycan array binding signal (z-score): 0.896
[24]
  glycan array binding signal (z-score): -0.527
[25]
  glycan array binding signal (z-score): 1.56
[26]
  glycan array binding signal (z-score): -0.623
[27]
  glycan array binding signal (z-score): 2
[28]
  glycan array binding signal (z-score): -0.334
[29]
  glycan array binding signal (z-score): 0.096
[30]
  glycan array binding signal (z-score): -0.628
[31]
  glycan array binding signal (z-score): 0.068
[32]
  glycan array binding signal (z-score): 0.271
